Laboratory results taken from patent US10016515B2, “DMA, a bis-benzimidazole, confers radioprotection to the intestine via Akt/NFκB dual pathway activation” (Jawaharlal Nehru University, priority 2016, dated 2018).

Test system: HEK293 cells
Test: Uptake and efflux study of DMA by flow cytometry
Type: cell-based, human

With `COc1ccc(-c2nc3cc(-c4nc5cc(N6CCN(C)CC6)ccc5[nH]4)ccc3[nH]2)cc1OC` [DMA, 5-(4-methylpiperazin-1-yl)-2-[2′-(3,4-dimethoxyphenyl)-5′-benzimidazolyl]benzimidazole] as the compound, how does the “Time to maximum DNA bound intensity of DMA (uptake)” value (HEK293, 50 μM DMA) read?
The value was 2 h.

What about the “Relative DMA intensity” value (HEK293, 72 h after 2 h incubation with 50 μM DMA) of the same compound?
Its value is about 14%.
